These results are taken from PMC7819943, “Rice protein-binding microarrays: a tool to detect cis-acting elements near promoter regions in rice”.

By UniProt entry, the sequences of proteins in these tests, tags left out.
UniProt Q0JBA9, entry or part of it: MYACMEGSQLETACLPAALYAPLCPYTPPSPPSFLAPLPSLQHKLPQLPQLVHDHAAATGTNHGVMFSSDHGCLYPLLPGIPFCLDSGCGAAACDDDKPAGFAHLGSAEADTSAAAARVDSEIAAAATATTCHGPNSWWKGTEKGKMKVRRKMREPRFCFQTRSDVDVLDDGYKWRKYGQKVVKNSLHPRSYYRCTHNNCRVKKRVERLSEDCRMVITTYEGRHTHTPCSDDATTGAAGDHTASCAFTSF

This is one part of the list.

The target of the test is OsWRKY34 (Oryza sativa, UniProt Q0JBA9 1-250). Description: protein-binding microarray (RPBM); PBS, 2% BSA, 51.3 ng/ul salmon testes DNA, 50 uM zinc acetate, 200 nM TF, 25 C, 1 h; high values mean tight binding. The following applies: protein: recombinant; tags: N-terminal polyhistidine and DsRed monomer fusion (pET32a); label: CyDye5-dUTP incorporated in the synthesized complementary strand; 3' TTTTT single-stranded linker to array surface; dsDNA, one strand shown. An outline of the steps:
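Using Ni–NTA, transcription factors fused N-terminally to polyhistidine and DsRed were purified after expression in E. coli BL21-CodonPlus. These were incubated at 200 nM with a blocked, double-stranded custom Agilent array for 1 h at 25 °C in a buffer containing 50 µM zinc acetate, and the array was washed. The binding signal is per-feature fluorescence intensity (arbitrary units) on an Axon 4000B scanner.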
With “CGCATATATATCTCTCTTTGCATCTGTACTCATCGAATCTCGGAGTCACCTAGTGCAG”, the binding signal is 8640 fluorescence intensity (a.u.).

Turning to “CTTCCGACGTCGTTCTTCCCGCACCACAACCGGACAGATCCGGAGTCACCTAGTGCAG”, the binding signal is 8320 fluorescence intensity (a.u.).

With “AGGGTATAGGGTAATAGGGATCAAGCGGCTGATGCATACACGGAGTCACCTAGTGCAG”, the binding signal was 9070 fluorescence intensity (a.u.).

Regarding “AAGATACTTAACACTTGTTCCAACCTGGACTTCAGAGCACCGGAGTCACCTAGTGCAG”, the binding signal is 8180 fluorescence intensity (a.u.).

As for “TCTCTTGTCCTTTTGGCCCATCCAATTTTGGCCTCAATTTCGGAGTCACCTAGTGCAG”, the binding signal was 9600 fluorescence intensity (a.u.).

With “AACCACCACTTTGTCCACTAAAACGCGCTCATGACCAATGCGGAGTCACCTAGTGCAG”, the binding signal was 9170 fluorescence intensity (a.u.).

As for “CCTCTGCAATCGGTCCAACTGCTGACTACTCCCTACATCTCGGAGTCACCTAGTGCAG”, the binding signal is 10200 fluorescence intensity (a.u.).

Take “CGTCGAGGTGACTCTATTCCCCTAGTTTCCTCTTTCCTTTCGGAGTCACCTAGTGCAG”: the binding signal is 9140 fluorescence intensity (a.u.).

As for “CTATTTCTATTCTGAACCTGCCAAATCCGTTTTATGAAAACGGAGTCACCTAGTGCAG”, the binding signal is 8530 fluorescence intensity (a.u.).

For the sequence “GTAAATCATTTTCTTACTTCATTCAAAATTTTCAATTTTTCGGAGTCACCTAGTGCAG”, the binding signal was 8250 fluorescence intensity (a.u.).

Turning to “ATGTCTTTCATAGTTCAATAGTTCATGGTTGTGACACTATCGGAGTCACCTAGTGCAG”, the binding signal is 8380 fluorescence intensity (a.u.).

Take “GCCGCTACATTCAGGGAAACATATATAGATTTGTCTTTCACGGAGTCACCTAGTGCAG”: the binding signal was 8050 fluorescence intensity (a.u.).

With “TTTAATCATTTTACCATTTTCTATCCTTTACATGTTTTATCGGAGTCACCTAGTGCAG”, the binding signal was 8380 fluorescence intensity (a.u.).

“ACAGCAGCCGCCGCGCCGGCCGCTCGCCACATTCACACGACGGAGTCACCTAGTGCAG”: the binding signal was 8370 fluorescence intensity (a.u.).

As to “ACCCTCCATGTCATCTAGTTTTCATAGCATTAAATACATTCGGAGTCACCTAGTGCAG”, the binding signal is 11400 fluorescence intensity (a.u.).

Take “ATCTCTCGTCATCTCCATCCTCTCTCGCCATCTCTCCTGTCGGAGTCACCTAGTGCAG”: the binding signal was 10300 fluorescence intensity (a.u.).

Take “TGACTGGTTCGCGCCCTTTTTTTTTTCTCTCCCGCGTTTTCGGAGTCACCTAGTGCAG”: the binding signal is 15300 fluorescence intensity (a.u.).

On to “TTTTGCTGTTTCTGTTAATGTTCCCGATTTTAGTAAATATCGGAGTCACCTAGTGCAG”, for which the binding signal is 10400 fluorescence intensity (a.u.).

Take “GTGAAAAATTTTTGGGTGGGATCTTAACAGGGCGCGCGTACGGAGTCACCTAGTGCAG”: the binding signal is 16300 fluorescence intensity (a.u.).

On to “TTTCTTTTTTTTGCCTACCTTTACTTTACACCAAAAACTGCGGAGTCACCTAGTGCAG”, for which the binding signal was 8630 fluorescence intensity (a.u.).

Take “TTTTTTCTTTCCTGTCCGATAATAAGTATGTCTGCTTTCCCGGAGTCACCTAGTGCAG”: the binding signal was 8440 fluorescence intensity (a.u.).

“CGGCGAGTTCTCCTCCATGGGCTTACCTCTCATGAACTATCGGAGTCACCTAGTGCAG”: the binding signal is 8630 fluorescence intensity (a.u.).

As for “GTCTCGCCTCCGCCGCACTCTCCTCTCTGTCTCCGCCGATCGGAGTCACCTAGTGCAG”, the binding signal was 9040 fluorescence intensity (a.u.).

As for “CGCCGCCTTCCGTTCCATTTCCATTCCACGACAAACAAACCGGAGTCACCTAGTGCAG”, the binding signal was 9120 fluorescence intensity (a.u.).

On to “GACATGTAGGCCCCACATATTTTGTTTGAACTTTTATTTTCGGAGTCACCTAGTGCAG”, for which the binding signal was 8890 fluorescence intensity (a.u.).

As for “TTTGCAAAATTTGCTGATGTGGCGCTCCTAACTTTCAACCCGGAGTCACCTAGTGCAG”, the binding signal is 8920 fluorescence intensity (a.u.).

In the case of “CCTACTTGTTGGCTTCTATCTCCTGTTAATTAATTTCTCACGGAGTCACCTAGTGCAG”, the binding signal is 8450 fluorescence intensity (a.u.).

As to “GTCCGTCTTGTTTTCTCCTGCGTCACAATTGTCCCGTATTCGGAGTCACCTAGTGCAG”, the binding signal is 18500 fluorescence intensity (a.u.).

Turning to “CGGAGCCAGTCCACTCGTGACCTTTGTCGAGCCATGATTTCGGAGTCACCTAGTGCAG”, the binding signal is 9040 fluorescence intensity (a.u.).

In the case of “GTAGGCTTTTGTTTCGGGTGGGATAATATCTTGGGGAAAGCGGAGTCACCTAGTGCAG”, the binding signal is 20700 fluorescence intensity (a.u.).

For the sequence “TGACTAATTGATCACCACCTGTTGAATAACCATATAGACTCGGAGTCACCTAGTGCAG”, the binding signal was 9480 fluorescence intensity (a.u.).

For “GGGAGGCGAGTGGAGTGCGTGTCGACGTGTCCTACTCATCCGGAGTCACCTAGTGCAG”, the binding signal was 8110 fluorescence intensity (a.u.).

As to “ACATTTCACGTGATTTTTCTCTTCTCTTCAACCGGAAATTCGGAGTCACCTAGTGCAG”, the binding signal is 8410 fluorescence intensity (a.u.).

With “TTGGGGATTTGTTGGTTGATCTGGGTATATATATCCCACTCGGAGTCACCTAGTGCAG”, the binding signal is 8200 fluorescence intensity (a.u.).

As to “GATCTGGTCCGTTGCTTCAGCTCAGAGCTCTCACCCGTCTCGGAGTCACCTAGTGCAG”, the binding signal is 11000 fluorescence intensity (a.u.).

As to “TGACACCGTTACATTTTCTCTTAATTATTCGGCATCAAGTCGGAGTCACCTAGTGCAG”, the binding signal was 11300 fluorescence intensity (a.u.).

As to “TACGTTTATACCCCTGCGATCCACCGGTACAGCACCATGACGGAGTCACCTAGTGCAG”, the binding signal is 9470 fluorescence intensity (a.u.).

For the sequence “CGCATGTACACGTACTCCTTTCCCCTCCACACCCTCCGAACGGAGTCACCTAGTGCAG”, the binding signal was 8600 fluorescence intensity (a.u.).

Consider “ATTCCATATTTCCATTCCACACGTCTTGAGAGCTAATCTTCGGAGTCACCTAGTGCAG”, for which the binding signal was 10900 fluorescence intensity (a.u.).

In the case of “GCCGCTTGCCCTCGCAGCCGCTCCGCCTGCCTCCGCCCACCGGAGTCACCTAGTGCAG”, the binding signal is 10000 fluorescence intensity (a.u.).

As to “CTCGGCTAACTCGACATCAGCTTCCCGACTTTGGCTACATCGGAGTCACCTAGTGCAG”, the binding signal was 9620 fluorescence intensity (a.u.).

On to “ATCCTGTAACCTGTGTAAGTATGCATGTTCCTTCTTTGTCCGGAGTCACCTAGTGCAG”, for which the binding signal was 8830 fluorescence intensity (a.u.).
